Source: the supplement of paper PMC11732987, “Enantioselective OTUD7B fragment discovery through chemoproteomics screening and high-throughput optimisation” (Communications Chemistry, 2025)
Some of the results follow. The data scatter; read single values as rough.

Chains of the proteins cited; added tags and fusions are not shown. Lines headed by an entry give the natural chain unless they say otherwise; changes in a name come on top.
UniProt Q9NS00: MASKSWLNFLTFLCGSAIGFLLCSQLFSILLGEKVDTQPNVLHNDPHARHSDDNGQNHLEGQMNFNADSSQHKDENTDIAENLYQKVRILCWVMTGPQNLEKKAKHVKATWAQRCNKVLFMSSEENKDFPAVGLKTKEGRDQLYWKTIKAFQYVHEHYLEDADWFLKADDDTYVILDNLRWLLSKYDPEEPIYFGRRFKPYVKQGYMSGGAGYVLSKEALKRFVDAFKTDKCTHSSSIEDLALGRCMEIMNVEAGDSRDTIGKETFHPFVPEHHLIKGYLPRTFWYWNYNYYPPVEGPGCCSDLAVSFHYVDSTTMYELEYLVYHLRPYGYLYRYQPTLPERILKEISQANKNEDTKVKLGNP
UniProt Q8NFC6: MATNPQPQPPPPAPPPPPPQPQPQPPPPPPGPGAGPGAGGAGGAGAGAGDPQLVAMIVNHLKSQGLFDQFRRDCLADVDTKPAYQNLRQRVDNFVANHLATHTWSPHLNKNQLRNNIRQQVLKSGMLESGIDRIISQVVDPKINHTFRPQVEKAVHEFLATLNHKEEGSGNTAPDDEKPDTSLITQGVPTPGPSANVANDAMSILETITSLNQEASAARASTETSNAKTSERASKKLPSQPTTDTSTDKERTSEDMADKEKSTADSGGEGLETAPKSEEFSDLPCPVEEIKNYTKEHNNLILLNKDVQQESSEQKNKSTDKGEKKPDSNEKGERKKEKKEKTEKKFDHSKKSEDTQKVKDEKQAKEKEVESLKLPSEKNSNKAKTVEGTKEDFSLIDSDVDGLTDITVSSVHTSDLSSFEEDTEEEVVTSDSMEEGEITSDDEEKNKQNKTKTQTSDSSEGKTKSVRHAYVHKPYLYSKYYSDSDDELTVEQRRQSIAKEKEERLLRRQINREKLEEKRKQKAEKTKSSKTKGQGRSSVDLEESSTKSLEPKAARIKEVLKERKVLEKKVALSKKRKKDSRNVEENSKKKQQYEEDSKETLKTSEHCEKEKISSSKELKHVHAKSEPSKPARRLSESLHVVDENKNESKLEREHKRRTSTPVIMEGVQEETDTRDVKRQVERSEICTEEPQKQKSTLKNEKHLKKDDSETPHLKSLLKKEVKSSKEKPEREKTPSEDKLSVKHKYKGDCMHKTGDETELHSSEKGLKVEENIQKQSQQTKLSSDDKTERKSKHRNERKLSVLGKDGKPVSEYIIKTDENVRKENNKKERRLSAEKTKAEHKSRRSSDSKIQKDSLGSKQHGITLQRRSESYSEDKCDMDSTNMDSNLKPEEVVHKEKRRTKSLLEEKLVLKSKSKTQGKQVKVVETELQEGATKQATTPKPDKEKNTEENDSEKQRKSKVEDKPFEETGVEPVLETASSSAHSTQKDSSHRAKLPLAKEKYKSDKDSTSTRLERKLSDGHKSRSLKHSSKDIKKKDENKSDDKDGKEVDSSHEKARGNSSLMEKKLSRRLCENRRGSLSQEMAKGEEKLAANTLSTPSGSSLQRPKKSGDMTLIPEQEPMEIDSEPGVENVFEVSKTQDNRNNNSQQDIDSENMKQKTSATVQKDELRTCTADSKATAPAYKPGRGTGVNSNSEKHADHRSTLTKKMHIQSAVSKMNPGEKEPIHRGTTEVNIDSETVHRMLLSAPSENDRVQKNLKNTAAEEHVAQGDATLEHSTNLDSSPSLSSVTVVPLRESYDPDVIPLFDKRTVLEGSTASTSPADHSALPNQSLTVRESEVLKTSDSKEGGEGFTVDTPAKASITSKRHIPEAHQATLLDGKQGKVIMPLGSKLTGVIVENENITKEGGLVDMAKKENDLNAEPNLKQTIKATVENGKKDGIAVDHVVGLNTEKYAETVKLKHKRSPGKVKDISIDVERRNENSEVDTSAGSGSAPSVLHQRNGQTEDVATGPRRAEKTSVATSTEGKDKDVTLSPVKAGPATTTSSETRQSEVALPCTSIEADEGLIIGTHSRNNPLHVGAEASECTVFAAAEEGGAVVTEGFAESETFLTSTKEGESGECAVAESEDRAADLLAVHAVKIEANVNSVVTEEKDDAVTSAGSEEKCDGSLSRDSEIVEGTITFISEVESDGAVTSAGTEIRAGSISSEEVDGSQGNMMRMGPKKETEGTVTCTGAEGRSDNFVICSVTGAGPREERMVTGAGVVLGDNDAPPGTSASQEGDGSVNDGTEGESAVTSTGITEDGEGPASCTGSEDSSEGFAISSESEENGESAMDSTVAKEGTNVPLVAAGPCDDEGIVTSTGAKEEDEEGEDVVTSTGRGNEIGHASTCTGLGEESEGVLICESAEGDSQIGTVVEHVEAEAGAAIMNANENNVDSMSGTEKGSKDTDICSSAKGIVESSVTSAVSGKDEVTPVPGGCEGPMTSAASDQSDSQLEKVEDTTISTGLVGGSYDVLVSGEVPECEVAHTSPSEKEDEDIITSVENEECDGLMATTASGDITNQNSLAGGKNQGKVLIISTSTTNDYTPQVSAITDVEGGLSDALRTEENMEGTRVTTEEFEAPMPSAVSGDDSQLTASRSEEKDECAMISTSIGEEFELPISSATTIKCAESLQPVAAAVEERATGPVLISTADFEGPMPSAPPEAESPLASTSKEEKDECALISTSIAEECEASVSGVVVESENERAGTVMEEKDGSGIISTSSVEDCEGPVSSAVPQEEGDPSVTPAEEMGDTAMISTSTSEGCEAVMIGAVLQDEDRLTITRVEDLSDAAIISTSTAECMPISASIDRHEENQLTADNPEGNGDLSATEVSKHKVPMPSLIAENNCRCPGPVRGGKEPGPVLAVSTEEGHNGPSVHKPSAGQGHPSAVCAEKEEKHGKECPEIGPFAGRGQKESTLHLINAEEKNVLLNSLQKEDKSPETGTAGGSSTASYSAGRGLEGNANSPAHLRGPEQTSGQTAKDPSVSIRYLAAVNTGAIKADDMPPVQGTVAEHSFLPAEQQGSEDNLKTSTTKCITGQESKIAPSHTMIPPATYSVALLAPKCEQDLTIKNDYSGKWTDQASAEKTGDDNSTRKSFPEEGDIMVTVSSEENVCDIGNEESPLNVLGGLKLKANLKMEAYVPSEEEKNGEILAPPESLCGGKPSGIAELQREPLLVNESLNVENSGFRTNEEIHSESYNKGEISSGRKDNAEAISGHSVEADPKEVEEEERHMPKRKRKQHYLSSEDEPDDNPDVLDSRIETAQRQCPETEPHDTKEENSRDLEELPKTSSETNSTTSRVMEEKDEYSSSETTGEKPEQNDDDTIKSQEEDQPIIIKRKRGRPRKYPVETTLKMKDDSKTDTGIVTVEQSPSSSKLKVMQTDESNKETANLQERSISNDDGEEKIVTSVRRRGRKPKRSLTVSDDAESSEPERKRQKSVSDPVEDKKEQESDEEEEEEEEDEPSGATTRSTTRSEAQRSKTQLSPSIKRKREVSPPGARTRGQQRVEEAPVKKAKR
UniProt Q8N8R5: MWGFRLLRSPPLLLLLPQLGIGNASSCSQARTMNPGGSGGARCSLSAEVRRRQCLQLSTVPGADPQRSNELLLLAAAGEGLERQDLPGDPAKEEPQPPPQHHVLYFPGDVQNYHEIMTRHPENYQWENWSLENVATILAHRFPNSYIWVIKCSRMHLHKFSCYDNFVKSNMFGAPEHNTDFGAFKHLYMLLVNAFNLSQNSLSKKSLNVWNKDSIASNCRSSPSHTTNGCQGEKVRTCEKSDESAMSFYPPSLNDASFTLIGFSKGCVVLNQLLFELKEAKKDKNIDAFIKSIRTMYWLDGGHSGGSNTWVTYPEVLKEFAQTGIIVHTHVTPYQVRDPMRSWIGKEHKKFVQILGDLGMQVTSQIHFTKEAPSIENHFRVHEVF
UniProt Q86YS7: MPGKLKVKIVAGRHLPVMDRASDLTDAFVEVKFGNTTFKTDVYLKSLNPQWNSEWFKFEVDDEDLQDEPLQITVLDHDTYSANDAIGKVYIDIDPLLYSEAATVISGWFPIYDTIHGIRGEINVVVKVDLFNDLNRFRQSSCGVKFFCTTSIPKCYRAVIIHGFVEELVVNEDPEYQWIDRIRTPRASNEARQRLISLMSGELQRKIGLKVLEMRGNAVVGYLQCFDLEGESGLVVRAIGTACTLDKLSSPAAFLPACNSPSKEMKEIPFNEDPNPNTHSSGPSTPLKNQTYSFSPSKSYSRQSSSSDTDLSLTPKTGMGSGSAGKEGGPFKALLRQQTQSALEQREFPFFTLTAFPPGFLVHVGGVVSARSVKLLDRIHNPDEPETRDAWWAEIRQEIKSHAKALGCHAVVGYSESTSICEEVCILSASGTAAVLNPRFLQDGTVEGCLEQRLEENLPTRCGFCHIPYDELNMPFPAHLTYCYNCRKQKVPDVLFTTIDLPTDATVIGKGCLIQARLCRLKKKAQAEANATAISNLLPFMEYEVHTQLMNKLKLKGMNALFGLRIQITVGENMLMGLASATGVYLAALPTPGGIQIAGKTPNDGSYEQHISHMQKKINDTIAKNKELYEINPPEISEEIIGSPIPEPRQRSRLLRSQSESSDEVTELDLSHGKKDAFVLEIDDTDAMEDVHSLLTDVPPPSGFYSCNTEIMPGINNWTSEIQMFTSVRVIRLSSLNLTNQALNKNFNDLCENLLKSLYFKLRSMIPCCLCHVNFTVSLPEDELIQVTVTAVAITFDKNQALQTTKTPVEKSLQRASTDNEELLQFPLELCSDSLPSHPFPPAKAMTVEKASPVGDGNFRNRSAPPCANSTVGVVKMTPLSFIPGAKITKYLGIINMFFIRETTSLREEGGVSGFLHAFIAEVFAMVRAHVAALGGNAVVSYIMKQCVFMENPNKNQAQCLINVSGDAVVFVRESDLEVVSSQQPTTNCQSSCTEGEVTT
UniProt P46736, whole entry, looked up: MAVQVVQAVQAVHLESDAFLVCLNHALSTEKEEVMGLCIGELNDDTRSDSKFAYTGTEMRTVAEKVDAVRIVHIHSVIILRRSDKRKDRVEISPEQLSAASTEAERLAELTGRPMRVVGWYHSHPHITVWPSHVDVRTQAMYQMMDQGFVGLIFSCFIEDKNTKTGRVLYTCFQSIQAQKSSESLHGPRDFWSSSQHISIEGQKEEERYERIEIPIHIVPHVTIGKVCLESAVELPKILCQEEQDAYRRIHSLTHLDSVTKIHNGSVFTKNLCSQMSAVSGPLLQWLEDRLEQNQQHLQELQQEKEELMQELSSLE
UniProt Q96K31: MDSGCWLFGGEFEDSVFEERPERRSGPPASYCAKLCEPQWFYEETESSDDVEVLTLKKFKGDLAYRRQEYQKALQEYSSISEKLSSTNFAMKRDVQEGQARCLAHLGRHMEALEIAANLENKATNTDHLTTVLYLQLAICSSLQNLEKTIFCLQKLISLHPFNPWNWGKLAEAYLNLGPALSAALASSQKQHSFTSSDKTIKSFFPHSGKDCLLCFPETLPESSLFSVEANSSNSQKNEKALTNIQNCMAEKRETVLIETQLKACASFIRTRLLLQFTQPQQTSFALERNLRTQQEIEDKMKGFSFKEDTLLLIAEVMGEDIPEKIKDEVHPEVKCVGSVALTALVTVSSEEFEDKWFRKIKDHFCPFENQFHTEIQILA
UniProt O60566, whole entry, looked up: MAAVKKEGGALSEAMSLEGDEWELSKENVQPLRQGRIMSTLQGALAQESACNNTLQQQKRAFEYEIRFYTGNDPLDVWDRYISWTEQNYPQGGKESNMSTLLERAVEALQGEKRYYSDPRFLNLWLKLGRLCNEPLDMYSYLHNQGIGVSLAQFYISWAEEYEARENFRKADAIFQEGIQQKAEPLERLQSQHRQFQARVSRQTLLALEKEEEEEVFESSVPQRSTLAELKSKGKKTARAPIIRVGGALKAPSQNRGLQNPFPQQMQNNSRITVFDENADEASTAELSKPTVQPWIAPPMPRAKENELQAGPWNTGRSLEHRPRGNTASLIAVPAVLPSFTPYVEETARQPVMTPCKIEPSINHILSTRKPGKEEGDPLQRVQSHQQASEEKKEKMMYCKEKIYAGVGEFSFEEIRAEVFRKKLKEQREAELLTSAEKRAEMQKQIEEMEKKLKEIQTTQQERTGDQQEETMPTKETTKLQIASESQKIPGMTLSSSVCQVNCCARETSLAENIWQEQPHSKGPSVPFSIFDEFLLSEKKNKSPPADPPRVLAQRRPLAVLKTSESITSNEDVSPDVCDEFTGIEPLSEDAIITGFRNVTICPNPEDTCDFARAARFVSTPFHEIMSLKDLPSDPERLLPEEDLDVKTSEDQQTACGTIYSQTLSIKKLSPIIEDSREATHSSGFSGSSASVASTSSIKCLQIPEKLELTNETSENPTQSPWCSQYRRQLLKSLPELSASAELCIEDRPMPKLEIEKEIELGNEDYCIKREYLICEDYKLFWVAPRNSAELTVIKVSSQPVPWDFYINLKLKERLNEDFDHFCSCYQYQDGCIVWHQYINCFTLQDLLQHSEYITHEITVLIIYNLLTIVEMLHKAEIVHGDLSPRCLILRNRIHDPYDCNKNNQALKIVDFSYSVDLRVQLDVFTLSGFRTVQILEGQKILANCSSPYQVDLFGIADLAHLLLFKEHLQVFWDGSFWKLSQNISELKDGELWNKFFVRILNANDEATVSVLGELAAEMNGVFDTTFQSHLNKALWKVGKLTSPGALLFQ

Each target was assayed with ClCC(=O)N[C@H]1CCCc2ccccc12 (assay: log2 mean competition ratio of IA-DTB cysteine labelling (DMSO/compound) (log2 ratio); higher = stronger cysteine engagement by compound). Conditions: 50 µM; treatment time: 4 h; cell line lysate: HEK293T.
Protocol: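 IA-DTB competitive cysteine chemoproteomics in HEK293T RIPA lysate. Lysates were treated with compound 29 or 30 at 50 or 200 µM for 4 h, then IA-DTB (500 µM, 1 h), trypsin-digested, NeutrAvidin-enriched and analysed by diaPASEF. Competition ratio = intensity DMSO / intensity compound (n=4 treated, n=64 DMSO); binding: mean log2 CR ≥ 1 and p ≤ 0.05 plus QC filters. Target is the cysteine site.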
BOLA1 C126 (UniProt Q9Y3E2) was tested, and the “log2 mean competition ratio” value was 0.138.
For C1GALT1 C232 (UniProt Q9NS00), the “log2 mean competition ratio” value was -0.231.
CAND1 C1007 was tested, and the “log2 mean competition ratio” value was -0.0657.
With C2CD2L C115 (UniProt O14523) the “log2 mean competition ratio” value was 0.0958.
For BOD1L1 C1729 (UniProt Q8NFC6), the “log2 mean competition ratio” value was -0.13.
With CARS1 C506 the “log2 mean competition ratio” value was -0.0341.
With C2orf69 C43 (UniProt Q8N8R5) the “log2 mean competition ratio” value was -0.016.
In the case of C2CD5 C142 (UniProt Q86YS7), the “log2 mean competition ratio” value is reported as -0.175.
With CACNA2D2 C1083 the “log2 mean competition ratio” value was -0.292.
In the case of BRD1 C895, the “log2 mean competition ratio” value is reported as -0.289.
In the case of BORA C130 (UniProt Q6PGQ7), the “log2 mean competition ratio” value is reported as -0.286.
With C2orf69 C230 (UniProt Q8N8R5) the “log2 mean competition ratio” value was -0.0667.
BRF1 C430 (UniProt Q92994) was tested, and the “log2 mean competition ratio” value was -0.137.
For BRCC3 C228 (UniProt P46736), the “log2 mean competition ratio” value was -0.74.
For C8orf76 C32 (UniProt Q96K31), the “log2 mean competition ratio” value was -0.188.
BUB1B C775 (UniProt O60566) was tested, and the “log2 mean competition ratio” value was 0.243.
With BOD1L1 C2164 (UniProt Q8NFC6) the “log2 mean competition ratio” value was 0.191.
With C17orf80 C228 (UniProt Q9BSJ5) the “log2 mean competition ratio” value was -0.0847.
CAMSAP2 C1416 (UniProt Q08AD1) was tested, and the “log2 mean competition ratio” value was 0.329.

Same assay, conditions: 200 µM; treatment time: 4 h; cell line lysate: HEK293T
With BOLA1 C126 (UniProt Q9Y3E2) the “log2 mean competition ratio” value was 0.0407.
With C1GALT1 C232 (UniProt Q9NS00) the “log2 mean competition ratio” value was -0.252.
In the case of CAND1 C1007, the “log2 mean competition ratio” value is reported as 0.0652.
C2CD2L C115 (UniProt O14523) was tested, and the “log2 mean competition ratio” value was 0.153.
BOD1L1 C1729 (UniProt Q8NFC6) was tested, and the “log2 mean competition ratio” value was 0.0641.
In the case of CARS1 C506, the “log2 mean competition ratio” value is reported as -0.0369.
With C2orf69 C43 (UniProt Q8N8R5) the “log2 mean competition ratio” value was 0.16.
With C2CD5 C142 (UniProt Q86YS7) the “log2 mean competition ratio” value was 0.123.
In the case of CACNA2D2 C1083, the “log2 mean competition ratio” value is reported as -0.0628.
With BRD1 C895 the “log2 mean competition ratio” value was -0.226.
BORA C130 (UniProt Q6PGQ7) was tested, and the “log2 mean competition ratio” value was 0.356.
For CADPS2 C919, the “log2 mean competition ratio” value was -0.323.
In the case of C2orf69 C230 (UniProt Q8N8R5), the “log2 mean competition ratio” value is reported as 0.379.
BRF1 C430 (UniProt Q92994) was tested, and the “log2 mean competition ratio” value was -0.191.
With BRCC3 C228 (UniProt P46736) the “log2 mean competition ratio” value was -0.06.
In the case of C8orf76 C32 (UniProt Q96K31), the “log2 mean competition ratio” value is reported as -0.033.
With BUB1B C775 (UniProt O60566) the “log2 mean competition ratio” value was -0.124.
BOD1L1 C2164 (UniProt Q8NFC6) was tested, and the “log2 mean competition ratio” value was 0.0957.
C17orf80 C228 (UniProt Q9BSJ5) was tested, and the “log2 mean competition ratio” value was 0.13.
With CAMSAP2 C1416 (UniProt Q08AD1) the “log2 mean competition ratio” value was -0.28.
